Experimental data from the supplement of paper PMC7666118.
The other results are listed elsewhere or left out.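 How the source made its calls: active = dose-dependent thermal stabilisation significant by F-test of dose-response against flat model at 10% FDR; inactive = not significant.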

Protein sequences, listed by entry. Tags and fused reporters are not part of them. Lines headed by an entry give the natural chain unless they say otherwise; changes in a name come on top.
UniProt Q8NBK3: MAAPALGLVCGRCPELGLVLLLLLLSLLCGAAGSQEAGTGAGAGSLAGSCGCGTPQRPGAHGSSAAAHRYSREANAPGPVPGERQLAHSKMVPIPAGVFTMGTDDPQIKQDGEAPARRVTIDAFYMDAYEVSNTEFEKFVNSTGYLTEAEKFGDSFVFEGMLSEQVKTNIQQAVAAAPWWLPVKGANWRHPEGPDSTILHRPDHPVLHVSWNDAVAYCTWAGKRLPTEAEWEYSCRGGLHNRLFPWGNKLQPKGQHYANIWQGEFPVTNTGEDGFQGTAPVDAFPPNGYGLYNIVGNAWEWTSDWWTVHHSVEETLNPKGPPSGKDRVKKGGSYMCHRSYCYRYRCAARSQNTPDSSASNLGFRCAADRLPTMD
UniProt P63165, whole entry: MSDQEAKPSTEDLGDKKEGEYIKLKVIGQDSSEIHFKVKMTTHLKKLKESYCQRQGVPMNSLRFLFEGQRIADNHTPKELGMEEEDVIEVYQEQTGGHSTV
UniProt Q9HD15: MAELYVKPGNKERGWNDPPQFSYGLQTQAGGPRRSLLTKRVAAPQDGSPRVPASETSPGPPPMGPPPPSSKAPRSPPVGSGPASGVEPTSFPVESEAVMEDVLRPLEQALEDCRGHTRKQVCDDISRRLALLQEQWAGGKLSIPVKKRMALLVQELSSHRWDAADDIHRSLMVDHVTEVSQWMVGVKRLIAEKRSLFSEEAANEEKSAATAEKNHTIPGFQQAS
UniProt P00441, whole entry: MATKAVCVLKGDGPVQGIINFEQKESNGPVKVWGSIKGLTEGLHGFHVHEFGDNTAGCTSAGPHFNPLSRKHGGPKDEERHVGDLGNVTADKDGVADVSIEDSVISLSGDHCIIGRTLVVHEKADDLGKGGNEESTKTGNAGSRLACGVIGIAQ
UniProt P18583: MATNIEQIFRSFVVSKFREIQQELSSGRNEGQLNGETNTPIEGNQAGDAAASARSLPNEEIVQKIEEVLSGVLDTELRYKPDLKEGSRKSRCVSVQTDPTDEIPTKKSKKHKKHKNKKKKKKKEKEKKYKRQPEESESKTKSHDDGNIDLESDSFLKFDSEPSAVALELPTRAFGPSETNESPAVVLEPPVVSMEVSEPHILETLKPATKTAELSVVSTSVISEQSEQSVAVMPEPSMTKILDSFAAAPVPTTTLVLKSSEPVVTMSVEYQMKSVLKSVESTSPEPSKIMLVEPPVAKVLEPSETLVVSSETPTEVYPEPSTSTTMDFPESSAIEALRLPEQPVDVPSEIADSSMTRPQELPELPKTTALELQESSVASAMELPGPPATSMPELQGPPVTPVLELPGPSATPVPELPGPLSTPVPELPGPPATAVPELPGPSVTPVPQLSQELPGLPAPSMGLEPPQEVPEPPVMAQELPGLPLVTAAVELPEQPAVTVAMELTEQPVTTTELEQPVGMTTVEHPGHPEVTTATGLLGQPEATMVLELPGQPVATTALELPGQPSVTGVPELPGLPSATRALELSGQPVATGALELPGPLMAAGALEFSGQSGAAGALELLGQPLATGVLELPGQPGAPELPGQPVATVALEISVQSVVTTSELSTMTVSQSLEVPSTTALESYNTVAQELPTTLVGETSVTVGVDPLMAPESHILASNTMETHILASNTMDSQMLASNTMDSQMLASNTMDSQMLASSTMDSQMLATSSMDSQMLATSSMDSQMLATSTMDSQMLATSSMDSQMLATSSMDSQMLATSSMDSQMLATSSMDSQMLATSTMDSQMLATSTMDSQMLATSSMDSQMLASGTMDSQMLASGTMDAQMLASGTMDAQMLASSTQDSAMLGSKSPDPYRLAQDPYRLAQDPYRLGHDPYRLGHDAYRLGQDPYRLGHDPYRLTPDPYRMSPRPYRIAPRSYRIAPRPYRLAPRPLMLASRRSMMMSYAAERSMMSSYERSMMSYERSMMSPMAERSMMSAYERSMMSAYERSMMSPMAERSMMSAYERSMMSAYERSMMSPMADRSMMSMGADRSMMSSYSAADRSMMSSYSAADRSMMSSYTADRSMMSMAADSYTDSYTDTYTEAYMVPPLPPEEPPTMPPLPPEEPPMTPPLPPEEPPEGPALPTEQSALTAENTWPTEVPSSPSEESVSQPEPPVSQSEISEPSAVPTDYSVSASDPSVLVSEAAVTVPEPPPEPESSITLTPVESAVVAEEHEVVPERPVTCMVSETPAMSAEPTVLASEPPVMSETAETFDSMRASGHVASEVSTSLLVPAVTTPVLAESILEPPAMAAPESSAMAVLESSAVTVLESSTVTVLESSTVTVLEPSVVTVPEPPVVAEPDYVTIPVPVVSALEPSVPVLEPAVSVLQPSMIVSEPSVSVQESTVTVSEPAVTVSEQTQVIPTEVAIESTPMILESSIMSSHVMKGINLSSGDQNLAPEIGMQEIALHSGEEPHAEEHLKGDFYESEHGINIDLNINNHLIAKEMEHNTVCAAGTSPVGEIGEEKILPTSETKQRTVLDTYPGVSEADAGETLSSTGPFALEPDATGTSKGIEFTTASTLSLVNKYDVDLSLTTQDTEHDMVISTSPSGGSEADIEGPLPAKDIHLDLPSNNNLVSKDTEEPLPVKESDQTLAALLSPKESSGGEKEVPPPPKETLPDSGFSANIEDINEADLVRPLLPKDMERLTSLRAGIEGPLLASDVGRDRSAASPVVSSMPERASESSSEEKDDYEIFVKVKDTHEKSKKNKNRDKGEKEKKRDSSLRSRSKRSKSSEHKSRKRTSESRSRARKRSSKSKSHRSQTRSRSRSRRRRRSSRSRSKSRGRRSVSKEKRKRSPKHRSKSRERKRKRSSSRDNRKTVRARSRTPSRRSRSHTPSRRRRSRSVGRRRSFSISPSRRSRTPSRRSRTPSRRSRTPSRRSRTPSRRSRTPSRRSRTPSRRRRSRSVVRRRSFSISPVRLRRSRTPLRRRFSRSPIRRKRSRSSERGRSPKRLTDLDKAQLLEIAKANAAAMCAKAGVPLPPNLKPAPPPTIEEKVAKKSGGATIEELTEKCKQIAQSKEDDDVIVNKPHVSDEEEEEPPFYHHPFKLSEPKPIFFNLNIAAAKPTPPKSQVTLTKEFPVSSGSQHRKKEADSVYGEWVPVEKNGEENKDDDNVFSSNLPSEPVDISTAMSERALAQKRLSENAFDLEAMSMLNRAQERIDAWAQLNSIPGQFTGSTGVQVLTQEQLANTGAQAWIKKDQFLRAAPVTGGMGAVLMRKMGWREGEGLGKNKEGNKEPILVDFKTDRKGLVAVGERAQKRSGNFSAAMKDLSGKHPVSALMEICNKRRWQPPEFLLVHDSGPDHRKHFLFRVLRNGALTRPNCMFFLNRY
UniProt P49458: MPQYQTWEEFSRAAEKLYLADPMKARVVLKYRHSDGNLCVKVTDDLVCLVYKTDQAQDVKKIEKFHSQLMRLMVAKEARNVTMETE
UniProt Q15022: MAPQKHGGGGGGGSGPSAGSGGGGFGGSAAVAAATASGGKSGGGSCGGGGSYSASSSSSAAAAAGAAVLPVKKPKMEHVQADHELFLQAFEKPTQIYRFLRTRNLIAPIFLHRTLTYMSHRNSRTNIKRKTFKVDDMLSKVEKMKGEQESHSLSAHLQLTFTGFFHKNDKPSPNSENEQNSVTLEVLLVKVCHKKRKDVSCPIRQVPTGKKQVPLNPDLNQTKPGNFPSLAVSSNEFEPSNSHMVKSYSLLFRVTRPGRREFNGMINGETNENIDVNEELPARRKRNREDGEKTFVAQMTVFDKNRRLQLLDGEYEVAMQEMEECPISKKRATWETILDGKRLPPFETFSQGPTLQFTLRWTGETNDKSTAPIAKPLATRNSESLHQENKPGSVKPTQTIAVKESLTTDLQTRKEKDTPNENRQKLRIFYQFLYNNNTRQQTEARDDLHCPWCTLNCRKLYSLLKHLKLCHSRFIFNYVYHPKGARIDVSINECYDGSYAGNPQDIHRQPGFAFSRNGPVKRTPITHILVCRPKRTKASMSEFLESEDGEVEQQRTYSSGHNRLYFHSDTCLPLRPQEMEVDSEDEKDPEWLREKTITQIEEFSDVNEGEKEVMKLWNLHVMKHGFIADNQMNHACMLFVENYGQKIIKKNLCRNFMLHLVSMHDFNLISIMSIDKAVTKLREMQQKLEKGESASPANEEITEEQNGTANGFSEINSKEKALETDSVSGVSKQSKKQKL
UniProt Q8NBJ7: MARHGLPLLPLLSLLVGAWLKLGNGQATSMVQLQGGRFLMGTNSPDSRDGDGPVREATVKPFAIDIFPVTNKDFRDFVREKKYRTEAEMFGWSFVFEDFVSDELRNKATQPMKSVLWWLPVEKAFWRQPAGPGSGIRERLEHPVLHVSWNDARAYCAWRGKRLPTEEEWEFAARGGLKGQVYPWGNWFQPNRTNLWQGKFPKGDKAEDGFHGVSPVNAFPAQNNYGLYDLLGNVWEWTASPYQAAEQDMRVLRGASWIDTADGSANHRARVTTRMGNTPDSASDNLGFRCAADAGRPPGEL
UniProt P61764, whole entry: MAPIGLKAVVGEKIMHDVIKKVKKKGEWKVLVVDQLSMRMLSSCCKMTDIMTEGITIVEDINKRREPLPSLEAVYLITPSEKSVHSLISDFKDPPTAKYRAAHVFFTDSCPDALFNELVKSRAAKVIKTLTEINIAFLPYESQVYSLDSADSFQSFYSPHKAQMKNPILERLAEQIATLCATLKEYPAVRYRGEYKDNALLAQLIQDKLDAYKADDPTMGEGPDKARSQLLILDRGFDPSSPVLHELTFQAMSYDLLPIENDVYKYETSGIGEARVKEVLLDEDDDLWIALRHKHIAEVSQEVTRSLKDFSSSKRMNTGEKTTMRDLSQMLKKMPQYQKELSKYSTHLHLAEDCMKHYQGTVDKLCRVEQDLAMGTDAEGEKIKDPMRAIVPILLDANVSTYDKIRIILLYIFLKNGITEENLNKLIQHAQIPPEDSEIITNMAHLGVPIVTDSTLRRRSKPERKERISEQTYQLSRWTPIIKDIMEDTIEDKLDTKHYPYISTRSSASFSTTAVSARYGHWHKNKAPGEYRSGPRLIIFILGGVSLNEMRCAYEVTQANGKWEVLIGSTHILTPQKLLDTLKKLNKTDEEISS
UniProt Q9UMZ2: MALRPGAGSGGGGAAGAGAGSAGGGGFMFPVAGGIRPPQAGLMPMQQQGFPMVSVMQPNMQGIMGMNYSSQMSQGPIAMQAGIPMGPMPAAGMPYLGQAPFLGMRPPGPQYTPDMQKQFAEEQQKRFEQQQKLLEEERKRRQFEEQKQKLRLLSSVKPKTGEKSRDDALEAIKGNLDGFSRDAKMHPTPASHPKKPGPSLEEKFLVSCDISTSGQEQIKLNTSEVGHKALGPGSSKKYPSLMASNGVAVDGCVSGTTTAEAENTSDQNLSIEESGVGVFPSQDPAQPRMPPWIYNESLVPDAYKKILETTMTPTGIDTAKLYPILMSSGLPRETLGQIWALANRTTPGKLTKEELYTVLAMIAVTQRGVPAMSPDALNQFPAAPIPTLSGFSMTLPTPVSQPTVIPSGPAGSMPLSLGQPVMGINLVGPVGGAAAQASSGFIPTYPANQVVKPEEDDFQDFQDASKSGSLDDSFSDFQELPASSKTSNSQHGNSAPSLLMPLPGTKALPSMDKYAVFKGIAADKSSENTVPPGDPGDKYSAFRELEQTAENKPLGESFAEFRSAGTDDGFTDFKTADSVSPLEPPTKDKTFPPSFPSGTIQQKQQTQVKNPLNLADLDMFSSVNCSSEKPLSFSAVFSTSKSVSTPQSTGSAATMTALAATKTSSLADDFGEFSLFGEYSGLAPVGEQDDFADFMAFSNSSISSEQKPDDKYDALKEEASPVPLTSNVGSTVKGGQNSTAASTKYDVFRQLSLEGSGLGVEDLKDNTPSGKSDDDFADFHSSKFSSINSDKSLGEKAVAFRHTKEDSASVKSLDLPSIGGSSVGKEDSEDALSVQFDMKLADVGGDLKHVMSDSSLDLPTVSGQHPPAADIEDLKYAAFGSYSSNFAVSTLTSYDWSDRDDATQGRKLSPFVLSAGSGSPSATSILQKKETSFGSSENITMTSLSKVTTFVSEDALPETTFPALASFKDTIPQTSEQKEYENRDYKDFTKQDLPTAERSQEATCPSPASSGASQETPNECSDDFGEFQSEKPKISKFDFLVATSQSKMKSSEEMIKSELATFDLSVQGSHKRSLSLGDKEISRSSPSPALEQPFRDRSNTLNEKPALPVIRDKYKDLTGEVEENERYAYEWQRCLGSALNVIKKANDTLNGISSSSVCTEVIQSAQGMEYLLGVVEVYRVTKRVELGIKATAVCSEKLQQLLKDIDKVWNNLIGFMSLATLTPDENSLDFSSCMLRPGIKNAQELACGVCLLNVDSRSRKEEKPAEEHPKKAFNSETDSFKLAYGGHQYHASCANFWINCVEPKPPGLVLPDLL
UniProt Q8IUQ4: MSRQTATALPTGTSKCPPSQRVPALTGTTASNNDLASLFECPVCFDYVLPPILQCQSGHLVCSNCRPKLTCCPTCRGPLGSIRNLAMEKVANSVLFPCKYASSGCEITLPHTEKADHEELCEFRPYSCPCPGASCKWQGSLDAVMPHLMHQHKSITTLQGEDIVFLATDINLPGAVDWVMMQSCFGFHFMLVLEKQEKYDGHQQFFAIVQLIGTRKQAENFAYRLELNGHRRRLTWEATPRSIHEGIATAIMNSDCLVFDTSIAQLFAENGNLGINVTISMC

These targets were tested with Nc1nc2c(ncn2[C@@H]2O[C@H](COP(=O)(O)OP(=O)(O)OP(=O)(O)O)[C@@H](O)[C@H]2O)c(=O)[nH]1 (assay: dose-dependent thermal stabilisation call (2D-TPP, DLPTP, 10% FDR) (binary (1 = stabilised)); higher = stabilised by the compound). Conditions: system: Jurkat gel-filtered lysate; concentration range 1-500 µM.
For SKP1 (UniProt P63208), the “dose-dependent thermal stabilisation call” value was inactive: 0. SUMF1 (UniProt Q8NBK3) was tested, and the “dose-dependent thermal stabilisation call” value was inactive: 0. For SUMO1 (UniProt P63165), the “dose-dependent thermal stabilisation call” value was inactive: 0. With STX18 (UniProt Q9P2W9) the “dose-dependent thermal stabilisation call” value was inactive: 0. For SP100 (UniProt P23497), the “dose-dependent thermal stabilisation call” value was inactive: 0. For SUCLG2 (UniProt Q96I99), the “dose-dependent thermal stabilisation call” value was active: 1. With SRA1 (UniProt Q9HD15) the “dose-dependent thermal stabilisation call” value was inactive: 0. In the case of SOD1 (UniProt P00441), the “dose-dependent thermal stabilisation call” value is reported as inactive: 0. SON (UniProt P18583) was tested, and the “dose-dependent thermal stabilisation call” value was active: 1. SPAST (UniProt Q9UBP0) was tested, and the “dose-dependent thermal stabilisation call” value was active: 1. With SRP9 (UniProt P49458) the “dose-dependent thermal stabilisation call” value was inactive: 0. In the case of SNRPD2 (UniProt P62316), the “dose-dependent thermal stabilisation call” value is reported as inactive: 0. In the case of TAB2 (UniProt Q9NYJ8), the “dose-dependent thermal stabilisation call” value is reported as inactive: 0. In the case of SUZ12 (UniProt Q15022), the “dose-dependent thermal stabilisation call” value is reported as active: 1. SNRPD3 (UniProt P62318) was tested, and the “dose-dependent thermal stabilisation call” value was inactive: 0. For SYNJ1 (UniProt O43426), the “dose-dependent thermal stabilisation call” value was inactive: 0. SRC (UniProt P12931) was tested, and the “dose-dependent thermal stabilisation call” value was inactive: 0. With SMG5 (UniProt Q9UPR3) the “dose-dependent thermal stabilisation call” value was inactive: 0. SUMF2 (UniProt Q8NBJ7) was tested, and the “dose-dependent thermal stabilisation call” value was inactive: 0. For SNX1 (UniProt Q13596), the “dose-dependent thermal stabilisation call” value was inactive: 0. In the case of STXBP1 (UniProt P61764), the “dose-dependent thermal stabilisation call” value is reported as inactive: 0. With SYNRG (UniProt Q9UMZ2) the “dose-dependent thermal stabilisation call” value was inactive: 0. SIAH1 (UniProt Q8IUQ4) was tested, and the “dose-dependent thermal stabilisation call” value was inactive: 0. In the case of SYNE1 (UniProt Q8NF91), the “dose-dependent thermal stabilisation call” value is reported as inactive: 0. SMG6 (UniProt Q86US8) was tested, and the “dose-dependent thermal stabilisation call” value was inactive: 0. For SRRT (UniProt Q9BXP5), the “dose-dependent thermal stabilisation call” value was inactive: 0. For SP1 (UniProt P08047), the “dose-dependent thermal stabilisation call” value was inactive: 0. With SSB (UniProt P05455) the “dose-dependent thermal stabilisation call” value was inactive: 0. In the case of SOS1 (UniProt Q07889), the “dose-dependent thermal stabilisation call” value is reported as inactive: 0. For SLBP (UniProt Q14493), the “dose-dependent thermal stabilisation call” value was active: 1. With SRCAP (UniProt Q6ZRS2) the “dose-dependent thermal stabilisation call” value was inactive: 0. For SORD (UniProt Q00796), the “dose-dependent thermal stabilisation call” value was active: 1. For SRSF9 (UniProt Q13242), the “dose-dependent thermal stabilisation call” value was active: 1. For SMG7 (UniProt Q92540), the “dose-dependent thermal stabilisation call” value was inactive: 0. With SRSF6 (UniProt Q13247) the “dose-dependent thermal stabilisation call” value was active: 1. For TAB1 (UniProt Q15750), the “dose-dependent thermal stabilisation call” value was inactive: 0.
